Experimental data reported in article PMC11464619.
These are yes or no findings as the source states them, for the method shown. In cells and extracts the contact can be indirect. Some binding calls cover weakened binding; strength is not graded here.

Sequences of proteins named here, by UniProt entry; tags and fusion partners are left off.
UniProt Q12778: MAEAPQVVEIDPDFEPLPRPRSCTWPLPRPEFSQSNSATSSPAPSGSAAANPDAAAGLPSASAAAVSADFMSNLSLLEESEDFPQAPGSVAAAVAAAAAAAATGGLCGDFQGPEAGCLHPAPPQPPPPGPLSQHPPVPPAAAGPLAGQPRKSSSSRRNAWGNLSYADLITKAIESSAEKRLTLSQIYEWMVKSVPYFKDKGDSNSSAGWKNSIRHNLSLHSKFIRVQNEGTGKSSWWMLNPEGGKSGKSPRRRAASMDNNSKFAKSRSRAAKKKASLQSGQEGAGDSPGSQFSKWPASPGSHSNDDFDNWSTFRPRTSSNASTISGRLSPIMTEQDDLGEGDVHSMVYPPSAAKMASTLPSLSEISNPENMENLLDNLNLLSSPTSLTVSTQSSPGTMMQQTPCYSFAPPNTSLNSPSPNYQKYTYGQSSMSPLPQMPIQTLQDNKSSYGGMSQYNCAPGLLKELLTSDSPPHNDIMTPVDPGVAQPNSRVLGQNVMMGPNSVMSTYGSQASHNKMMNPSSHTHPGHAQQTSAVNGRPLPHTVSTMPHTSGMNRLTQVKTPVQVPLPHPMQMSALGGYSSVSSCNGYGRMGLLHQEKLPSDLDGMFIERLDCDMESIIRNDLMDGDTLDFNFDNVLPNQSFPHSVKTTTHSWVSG
UniProt P29034: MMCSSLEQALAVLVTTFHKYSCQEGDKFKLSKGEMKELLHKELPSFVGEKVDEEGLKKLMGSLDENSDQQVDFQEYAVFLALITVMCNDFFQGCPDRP

Biological target: FoxO1 (human (endogenous in HK-2)) (UniProt Q12778)
Experiment: co-IP; endogenous proteins; lysate pre-cleared with Protein A+G agarose beads at 4°C for 30 min, then incubated overnight at 4°C with magnetic beads pre-bound with rabbit IgG, anti-S100A2 or anti-FoxO1; washed with TBS; immunoblotting

- binding: binds
Substance: S100 calcium-binding protein A2 (from UniProt P29034 1-98)
